In PubChem BioAssay AID493014 (National Center for Advancing Translational Sciences (NCATS), 2011) one finds AC50 data, which are given here for 64 molecules.

The list shows a part of the results. These are further read-outs of the screen, such as a control signal, another cell line or another target. No call is given for them. The list favours compounds with an active or inconclusive main result. Potencies come from curve fits of mixed quality, noted in brackets.

The assay is described as follows: qHTS Assay to Find Inhibitors of Chronic Active B-Cell Receptor Signaling. The following applies: ABC-DLBCL IkBa-CBG/CBR reporter, luminescence ratio (green luciferase fused to IkBa over red control in TMD8 lymphoma cells), 4 h. In short, it runs like this: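 Concentration-response series (up to 46 uM) were applied to TMD8 dual-reporter cells for 4 h at 37C with doxycycline. Green/red ratio, after filter-overlap correction, defined %Activity; red signal alone was normalised to basal cells and zero luminescence.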

[1] abbreviates: measured here: CBR red luminescence, cell number.
Where [2] appears, read: measured here: IkBa-CBG green luminescence.

With `O=C(NCc1cccs1)c1nn2cccnc2c1Cl`, the AC50 (in general, the concentration at which the activity in the assay is half-maximal) under setting [1] was 16.4 µM [falling, partial curve, poor fit].
As for `O=C(CC1C(=O)N(Cc2ccccc2)C(=S)N1CCN1CCOCC1)Nc1ccc(F)cc1` (configuration not stated), under setting [1], the AC50 is 17.8 µM [falling, partial curve, poor fit].
The same measure, in the same setting: for `CC(=O)Nc1cccc(C(=O)OCC(=O)N(c2ccccc2)C2CCS(=O)(=O)C2)c1` (configuration not stated) the value was 18.4 µM [falling, partial curve]; for `COC(=O)c1ccc(Cn2c(C)cc(C)[n+]2C)o1`, 6.51 µM [falling, single point].
As for `CCOC(=O)CN(C)Cc1c[nH]c2ccccc12`, the AC50 under setting [1] is 32.6 µM [rising, single point].
Still for that read-out and setting: for `COc1ccc(S(=O)(=O)N2CCC[C@H]2C(=O)NCc2ccc(Cl)cc2)cc1` the value was 3.98 µM [falling, single point].
Still for that read-out and setting: for `O=C(NC1CCN(C(=O)c2ccccc2Br)CC1)c1ccccc1` the value was 5.62 µM [falling, single point].
Still for that read-out and setting: for `Cc1cc(C)cc(-n2ncc3c2CCCC3NC(=O)C2CCC2)c1` (configuration not stated) the value was 35.5 µM [rising, single point].
Regarding `C=CCn1c(-c2ccc(OC)cc2)csc1=Nc1c(C)n(C)n(-c2ccccc2)c1=O`, under setting [1], the AC50 is 6.51 µM [falling, single point].
Same read-out and setting: the figure for `NC(=S)N/N=C/c1cn(CCC(=O)O)nc1-c1cccc(Br)c1` is 14.1 µM [rising, partial curve, poor fit].
Still for that read-out and setting: the figure for `CCOc1ccccc1NC(=O)Cn1nnc(C(=O)NCCc2ccc(OCC)c(OCC)c2)c1N` is 12.6 µM [rising, partial curve, poor fit]; for `O=C(O)/C=C/c1coc2ccccc2c1=O` it is 9.2 µM [falling, partial curve]; for `CCCn1c(CNc2ccccc2O)nc2ccccc21` it is 18.4 µM [falling, partial curve, poor fit].
Same read-out and setting: the figure for `Cc1cc(N2CCC(C(=O)NC3CCCCC3)CC2)nc(-c2ccccc2)n1` is 5.8 µM [rising, full curve, poor fit].
With `CC1CCCN(C(=O)Cc2cn(Cc3cccc(Cl)c3)c3ccccc23)C1` (configuration not stated), the AC50 under setting [2] was 23.1 µM [rising, partial curve, poor fit].
With `Cc1ccccc1OCc1nc(-c2cccnc2)no1`, the AC50 under setting [1] was 0.112 µM [falling, full curve, poor fit].
As for `O=C(O)/C=C\C(=O)Nc1ccc(OCc2ccccc2)cc1`, the AC50 under setting [1] is 17.8 µM [falling, single point].
On the same count and under the same terms, for `CN(C)c1ccc(N=Cc2nc(-c3ccccc3)oc2OC(=O)c2cccc(Br)c2)cc1` the value was 13 µM [falling, partial curve].
Take `Cc1cccc2sc(N(CCCN(C)C)C(=O)c3sc4ccccc4c3Cl)nc12`: the AC50 under setting [1] was 4.61 µM [falling, partial curve].
Same read-out and setting: the figure for `c1ccc(N2CC3CCc4ccccc4C3=N2)cc1` (configuration not stated) is 2.82 µM [rising, full curve]; for `CCOc1ccc(-c2nnc(-c3ccccc3)n2-c2ccccc2)cc1` it is 4.11 µM [rising, full curve, poor fit].
For the molecule `CCOC(=O)C(C(C)=O)c1nc(C)nc2c1nnn2Cc1ccccc1Cl` (configuration not stated), the AC50 is, setting by setting: under setting [1], 7.31 µM [falling, partial curve]; under setting [2], 4.61 µM [rising, partial curve, poor fit].
For `CN(CC(=O)Nc1ccc(Cl)c(Cl)c1)C(=O)CNC(=O)Cc1ccccc1`, the AC50 under setting [1] is 20.6 µM [rising, single point].
Turning to `Cc1ccc(NC(=O)COC(=O)CN2C(=O)C3CCCCC3C2=O)cc1S(=O)(=O)N1CCOCC1` (configuration not stated), the AC50 under setting [1] is 10.3 µM [rising, partial curve, poor fit].
Take `CN(C)c1ccc(/C=N/NC(=O)c2ccccc2)cc1`: the AC50 under setting [1] is 1.26 µM [falling, partial curve].
With `COc1cc(NC2c3ccccc3C(=O)N2Cc2ccc3c(c2)OCO3)cc(OC)c1OC` (configuration not stated), the AC50 under setting [1] was 0.517 µM [rising, partial curve, poor fit].
With `CC1(C)C(=O)Nc2ccccc2N1C(=O)Cn1ncc(Cl)c(Cl)c1=O`, under setting [1], the AC50 was 22.4 µM [falling, single point].
Still for that read-out and setting: for `CS(=O)(=O)N1CCC(Oc2ccccc2C(=O)NC(C2CC2)C2CC2)CC1` the value was 5.62 µM [rising, partial curve, poor fit]; for `O=C(c1ccccc1)N1CCC(c2nc3c(nnn3Cc3ccccc3Cl)c(=O)[nH]2)CC1`, 5.17 µM [falling, partial curve]; for `O=C(NNC(=S)Nc1ccccc1)c1ccco1`, 3.55 µM [falling, partial curve].
The same measure, in the same setting: for `O=C(COC(=O)CCCN1C(=O)c2ccccc2C1=O)Nc1ncc(Cl)cc1Cl` the value was 17.8 µM [rising, partial curve, poor fit]; for `CCOc1ccc(CNC(=O)c2ccc(Sc3ccc(C)cc3)c(N)c2)cc1OC`, 10 µM [falling, partial curve, poor fit].
For the molecule `CC(C)(C)c1ccc(NC(=O)C2=CC=CN3CCS(=O)(=O)N=C23)cc1`, under setting [1], the AC50 is 16.4 µM [rising, partial curve, poor fit].
The same measure, in the same setting: the figure for `Cc1nn(C)cc1C1C(C#N)=C(N)N(c2ccc(F)c([N+](=O)[O-])c2)C2=C1C(=O)CCC2` (configuration not stated) is 20.6 µM [falling, single point]; for `COc1ccccc1Nc1nc2nonc2[nH]c1=O` it is 15.8 µM [falling, single point]; for `O=C(Nn1cnnc1)c1cc(-c2cccc(Br)c2)nc2ccccc12` it is 31.6 µM [rising, single point].
The same measure, in the same setting: for `CCC(=O)Nc1nc2ccc3sc(C)nc3c2s1` the value was 10 µM [falling, partial curve, poor fit]; for `CCOc1ccc(CCNC(=O)C2CCCN(c3nn4c(=O)cc(C)nc4s3)C2)cc1OCC` (configuration not stated), 6.51 µM [rising, single point].
On the same count and under the same terms, the figure for `COc1cccc(CNn2c(-c3cccc(C)c3)nc3ccccc3c2=O)c1` is 29.1 µM [falling, single point]; for `Cc1cc2c(=O)oc(-c3ccccc3Br)nc2s1` it is 17.8 µM [falling, single point].
As for `N#C/C(=N\O)c1nc(-c2ccccc2)cs1`, the AC50 under setting [1] is 3.98 µM [rising, single point].
On to `O=C(NCCO)c1cc(-c2cc(C(=O)NCCO)c3ccccc3n2)nc2ccccc12`, for which the concentration at half-maximal activity (AC50) under setting [1] is 0.562 µM [rising, partial curve, poor fit].
The same measure, in the same setting: for `Cc1ccnc(NC(=O)c2ccc(COc3ccc(Cl)cc3)o2)c1` the value was 29.1 µM [falling, single point].
Still for that read-out and setting: the figure for `S=C(Nc1ccccc1)N1CCN(C(=S)c2ccccc2)CC1` is 35.5 µM [falling, single point].
Take `O=C(c1ccccc1Cc1ccccc1)N1CCN(S(=O)(=O)c2ccccc2Br)CC1`: the AC50 under setting [1] was 20.6 µM [falling, single point].
The same measure, in the same setting: for `CCOC(=O)c1c(NC(=O)Cn2ccsc2=N)sc(C)c1C` the value was 14.1 µM [falling, single point]; for `O=C(CCCOc1ccc(Cl)cc1)N1CCCCC1`, 3.26 µM [rising, full curve, poor fit].
Turning to `O=C(/C=C/Nc1ccccc1F)c1ccc(Br)cc1`, the half-maximal activity concentration (AC50) under setting [1] is 5.8 µM [falling, full curve].
Consider `CCC(=O)Nc1nnc(SCc2ccc(F)cc2)s1`, for which the AC50 under setting [1] was 1.46 µM [rising, full curve, poor fit].
Turning to `Cc1noc(C)c1C(=O)Nc1nc2ccc(F)cc2s1`, the AC50 under setting [1] was 5.8 µM [falling, partial curve, poor fit].
With `O=C(NC(=S)N1CCCCC1CO)C12CC3CC(CC(C3)C1)C2` (configuration not stated), the AC50 under setting [1] is 0.112 µM [rising, full curve, poor fit].
With `CN(c1ccc(O)cc1)S(=O)(=O)c1ccc2ccccc2c1`, the AC50 under setting [1] was 11.2 µM [falling, partial curve, poor fit].
On the same count and under the same terms, the figure for `Cc1ccc(C=Nc2ccc(N(C)C)cc2)o1` is 2.24 µM [falling, full curve, poor fit].
On the same count and under the same terms, the figure for `Cc1ccc(-c2csc3ncn(/N=C/N(C)C)c(=O)c23)o1` is 8.2 µM [falling, partial curve, poor fit].
For `CC(=O)Nc1cccc(C(=O)OC(C)C(=O)NC2CCCc3ccccc32)c1` (configuration not stated), the AC50 reads like this: under setting [1], 3.98 µM [falling, single point]; under setting [2], 6.31 µM [rising, partial curve, poor fit].
Regarding `O=C(COc1cccc2ccccc12)NNC(=O)[C@@H]1CCCC[C@@H]1C(=O)O`, under setting [1], the AC50 was 29.1 µM [falling, single point].
Same read-out and setting: for `CC(=O)c1c(C)[nH]c(C(=O)OCc2csc(CC(=O)Nc3ccccc3C)n2)c1C` the value was 1.16 µM [falling, full curve, poor fit]; for `CCOC(=O)CNC(=O)CNC(=O)Cn1ccc2ccccc2c1=O`, 1.64 µM [rising, full curve, poor fit]; for `CC(=O)Nc1ccc(S(=O)(=O)N(c2cccnc2)S(=O)(=O)c2ccc(NC(C)=O)cc2)cc1`, 29.1 µM [rising, single point].
`Cc1ccc(C(=O)c2cc([N+](=O)[O-])ccc2N2CCOCC2)c(C)c1`: the AC50 under setting [1] was 8.91 µM [rising, partial curve, poor fit] and the AC50 under setting [2] is 7.94 µM [falling, partial curve, poor fit].
With `COC(=O)c1cc2oc3ccccc3c2n1Cc1ccccn1`, under setting [1], the concentration at half-maximal activity (AC50) is 6.51 µM [falling, single point].
Same read-out and setting: the figure for `O=C(O)c1cccc2c1C(=O)N(Cc1ccccc1)C2` is 2.24 µM [rising, partial curve, poor fit]; for `COC(=O)c1sccc1NC(=O)C1CC2CCC1C2` (configuration not stated) it is 20.6 µM [rising, single point]; for `CO/N=C/c1ccc(Sc2ccccc2N)c([N+](=O)[O-])c1` it is 10 µM [rising, partial curve].
